The target of the assay is His-DDX3X^414-582 (human) (UniProt O00571). In words: fluorescence thermal shift (FTS) assay; 10 µM His-DDX3X^414-582, 20 µM peptide, 50 mM HEPES pH 8, 10x SYPRO-Orange; change of melting temperature; both purified.

Chains of the proteins cited; added tags and fusions are not shown. Lines headed by an entry give the natural chain unless they say otherwise; changes in a name come on top. Residues count along the entry.
UniProt O00571, residues 414-582: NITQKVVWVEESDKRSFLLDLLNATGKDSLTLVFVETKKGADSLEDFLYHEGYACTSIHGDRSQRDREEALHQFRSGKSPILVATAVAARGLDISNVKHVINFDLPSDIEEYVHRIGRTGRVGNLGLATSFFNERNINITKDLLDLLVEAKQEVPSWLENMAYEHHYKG
UniProt P48730: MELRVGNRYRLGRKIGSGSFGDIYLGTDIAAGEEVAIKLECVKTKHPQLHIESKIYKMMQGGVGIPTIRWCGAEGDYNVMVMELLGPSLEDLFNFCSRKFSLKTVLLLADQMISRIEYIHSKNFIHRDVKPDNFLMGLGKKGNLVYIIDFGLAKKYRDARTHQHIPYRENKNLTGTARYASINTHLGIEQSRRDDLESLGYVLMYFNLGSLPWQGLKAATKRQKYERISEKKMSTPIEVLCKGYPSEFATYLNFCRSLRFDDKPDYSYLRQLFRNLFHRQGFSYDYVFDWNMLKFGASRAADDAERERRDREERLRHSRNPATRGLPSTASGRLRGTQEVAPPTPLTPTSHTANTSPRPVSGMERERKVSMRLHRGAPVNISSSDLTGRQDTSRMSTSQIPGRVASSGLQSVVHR

Results are given in words; binding and its absence hold for the method and conditions named.

B1: CK1δ-derived peptide δ-341 (peptide, UniProt P48730 341-355)
peptide: SGSGAPPTPLTPTSHTANT
modifications: biotin on the N-terminus, coupled via the SGSG spacer
Consider B1, for which the binding result was “no binding (tested: 20 µM)”.

The values are drawn from article PMC5818060.
